# Source: US9745288B2, “Compounds and methods for treating cancer by inhibiting the urokinase receptor” (Indiana University Research and Technology Corporation, priority 2011, dated 2017)
# Test system: MMP-9
# Assay: Gelatin zymography of MDA-MB-231 conditioned medium
# Type: cell-based, human
smiles,measurement,value
Cc1ccc(-n2ncc(C(=O)Nc3ccccc3OCc3ccccc3)c2C2CCNCC2)cc1C,MMP-9 activity in gelatin zymography,impairment of matrix metalloproteinase (MMP-9) activity; also recorded: increasing inhibition of MMP-9

# Entries after “also recorded” stand apart in the source; their conditions may differ. A number of entries come with more than one value. They are shown here; other results are not. An entry can have further records. The records of an entry differ for a reason that is not stated; some may be repeats, others may stem from another dose, organism or construct than stated.
